Data from patent publication US6891027.
No constants are given. Whether binding was seen depends on the method and setting. Some entries that bind do so weakly or less than the wild type.

The chains behind the UniProt entries cited, without tags or fusion partners. Residues count along the entry.
UniProt P20023, residues 21-1033: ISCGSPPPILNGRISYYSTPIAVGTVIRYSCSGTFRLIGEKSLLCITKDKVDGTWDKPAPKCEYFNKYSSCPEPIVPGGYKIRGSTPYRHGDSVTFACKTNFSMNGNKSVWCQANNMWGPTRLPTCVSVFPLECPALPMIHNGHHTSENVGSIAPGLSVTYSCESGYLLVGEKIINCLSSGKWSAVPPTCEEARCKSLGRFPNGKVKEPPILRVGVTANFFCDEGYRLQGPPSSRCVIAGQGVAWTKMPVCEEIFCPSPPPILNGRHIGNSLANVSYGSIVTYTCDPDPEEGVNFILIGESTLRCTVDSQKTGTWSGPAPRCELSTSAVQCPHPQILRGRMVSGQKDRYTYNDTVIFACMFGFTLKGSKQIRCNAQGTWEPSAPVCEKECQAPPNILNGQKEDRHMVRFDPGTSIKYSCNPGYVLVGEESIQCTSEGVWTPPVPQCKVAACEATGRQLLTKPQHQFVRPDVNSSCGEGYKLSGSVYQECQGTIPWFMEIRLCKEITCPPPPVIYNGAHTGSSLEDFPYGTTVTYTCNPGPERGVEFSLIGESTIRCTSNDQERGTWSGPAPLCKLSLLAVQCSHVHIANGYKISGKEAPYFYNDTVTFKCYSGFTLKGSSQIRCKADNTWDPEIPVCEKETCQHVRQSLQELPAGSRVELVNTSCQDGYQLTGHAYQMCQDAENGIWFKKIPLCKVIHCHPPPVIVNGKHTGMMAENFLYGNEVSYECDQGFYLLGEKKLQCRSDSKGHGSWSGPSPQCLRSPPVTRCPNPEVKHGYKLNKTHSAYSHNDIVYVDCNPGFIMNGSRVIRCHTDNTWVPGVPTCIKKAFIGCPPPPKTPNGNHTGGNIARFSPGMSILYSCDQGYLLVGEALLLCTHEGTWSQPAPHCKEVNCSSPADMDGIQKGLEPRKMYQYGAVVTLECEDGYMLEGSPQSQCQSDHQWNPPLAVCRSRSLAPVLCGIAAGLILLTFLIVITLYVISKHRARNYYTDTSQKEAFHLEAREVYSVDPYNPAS
UniProt P01027, residues 1006-1302: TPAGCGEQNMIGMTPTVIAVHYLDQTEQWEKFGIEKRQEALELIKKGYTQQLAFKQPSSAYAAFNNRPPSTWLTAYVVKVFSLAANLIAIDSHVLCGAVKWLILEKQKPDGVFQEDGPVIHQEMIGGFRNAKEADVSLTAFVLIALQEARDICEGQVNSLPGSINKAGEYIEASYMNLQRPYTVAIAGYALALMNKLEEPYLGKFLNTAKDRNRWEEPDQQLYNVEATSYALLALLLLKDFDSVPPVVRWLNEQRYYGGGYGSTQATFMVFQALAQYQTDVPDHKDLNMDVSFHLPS

Biological target: CD21 on Raji B lymphoblastoid cells (human) (UniProt P20023)
Assay: summary of the Raji cell binding experiments of the filing

binding: binds
Substance: mouse C3d (from UniProt P01027 1006-1302) (ligand)
